PubChem BioAssay AID1053208 – Peter MacCallum Cancer Centre – 2014

Assay: 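Find knock-downs that sensitise mouse osteosarcoma cells to doxorubicin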 (primary screen)
Cells: mouse osteosarcoma cells, early-passage culture from an engineered mouse model of fibroblastic bone tumour
Knock-down reagent: siRNA pool against mouse genes, 40 nM
Timing: about 120 h (48 h before drug, then 72 h with drug)
Challenge: doxorubicin 100 nM for 72 h, roughly 30-40% inhibitory dose
Read-out: 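Viability read as ATP luminescence after 72 h of 100 nM doxorubicin or none, duplicate wells averaged, scaled to non-targeting siRNA, then expressed as robust z-scores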
Direction: viability z-score with doxorubicin and doxorubicin viability vs non-targeting: higher = more viable cells under doxorubicin; viability z-score without drug: higher = more viable cells with knock-down alone; z-score of drug to no-drug ratio: higher = less drug sensitisation by knock-down
Active means: 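a pool counts as active when its viability z-score with doxorubicin is -2 or below and its z-score without drug lies between -2 and 2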
The whole screen tested about 17,000 reagents; below is an unselected part. 788 of them (4.7%) were called active. 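Calls rest on z-score classes alone; an extra cut-off of viability at most 70% of control was not applied to them.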 Unmarked entries are inactive.

target gene,combined z-score class,viability z-score with doxorubicin,viability z-score without drug,z-score of drug to no-drug ratio,doxorubicin viability vs non-targeting
Ccnj (cyclin J),no change with or without drug,0.22,1.01,-0.34,0.96
Pcnx3 (pecanex homolog 3),no change with or without drug,0.9,1.18,0.22,1.02
1700006J14Rik (RIKEN cDNA 1700006J14 gene),no change with or without drug,0.67,1.35,-0.11,1
"Ina (internexin neuronal intermediate filament protein, alpha)",no change with or without drug,0.67,-0.17,0.9,1
Nav1 (neuron navigator 1),no change with or without drug,0,-0.84,0.67,0.94
"Tor1a (torsin family 1, member A (torsin A))",no change with or without drug,-0.9,0.17,-0.9,0.86
Pus7l (pseudouridylate synthase 7-like),no change with or without drug,0.67,-0.51,1.24,1
"Atp11b (ATPase, class VI, type 11B)",no change with or without drug,-1.69,0.34,-1.91,0.79
Adora2b (adenosine A2b receptor),no change with or without drug,-1.57,-0.84,-1.01,0.8
Cd14 (CD14 antigen),high cell count without drug only,0.67,2.19,-0.56,1
Eno4 (enolase 4),high cell count with doxorubicin only,2.02,0.84,1.57,1.12
Kdm5d (lysine demethylase 5D),no change with or without drug,-0.56,1.52,-1.35,0.89
Bmp6 (bone morphogenetic protein 6),no change with or without drug,-0.22,-1.18,0.79,0.92
Spata7 (spermatogenesis associated 7),no change with or without drug,-0.9,-0.84,-0.22,0.86
Scml4 (Scm polycomb group protein like 4),low cell count without drug only,-1.12,-2.19,0.45,0.84
"Gale (galactose-4-epimerase, UDP)",no change with or without drug,0.67,0.84,0.22,1
Ascl1 (achaete-scute family bHLH transcription factor 1),no change with or without drug,-0.9,-1.18,0,0.86
Odr4 (odr4 GPCR localization factor homolog),no change with or without drug,1.35,1.01,0.79,1.06
Nrdc (nardilysin convertase),no change with or without drug,0.22,-1.18,1.24,0.96
Ubxn7 (UBX domain protein 7),no change with or without drug,1.12,0.67,0.79,1.04
"Btn2a2 (butyrophilin, subfamily 2, member A2)",no change with or without drug,-0.79,-0.67,-0.22,0.87
Pdha1 (pyruvate dehydrogenase E1 alpha 1),no change with or without drug,-0.56,-0.51,-0.11,0.89
Tpst2 (protein-tyrosine sulfotransferase 2),no change with or without drug,0.45,0.51,0.22,0.98
Mrps5 (mitochondrial ribosomal protein S5),no change with or without drug,-1.12,-1.18,-0.34,0.84
"Gprc5d (G protein-coupled receptor, family C, group 5, member D)",no change with or without drug,0.34,-0.34,0.67,0.97
Ssty2 (spermiogenesis specific transcript on the Y 2),high cell count with and without drug,2.59,2.19,1.12,1.17
"Csnk1g2 (casein kinase 1, gamma 2)",no change with or without drug,-0.67,1.18,-1.35,0.88
Kctd4 (potassium channel tetramerisation domain containing 4),no change with or without drug,-1.12,0.17,-1.12,0.84
Wfdc18 (WAP four-disulfide core domain 18),no change with or without drug,-0.45,0.34,-0.56,0.9
Notum (notum palmitoleoyl-protein carboxylesterase),high cell count with doxorubicin only,2.14,1.69,1.12,1.13
"Pla2g4e (phospholipase A2, group IVE)",no change with or without drug,-0.56,0.67,-0.9,0.89
Spc25,low cell count with and without drug,-2.92,-5.06,0.79,0.68
Lamb1 (laminin B1),no change with or without drug,0,-0.51,0.45,0.94
"Acp7 (acid phosphatase 7, tartrate resistant)",no change with or without drug,-0.67,-0.51,-0.22,0.88
Fzd7 (frizzled class receptor 7),no change with or without drug,0.45,-0.17,0.67,0.98
Scg3 (secretogranin III),high cell count with and without drug,2.92,3.2,0.79,1.2
Tmem135 (transmembrane protein 135),no change with or without drug,-0.22,-0.51,0.22,0.92
Gpr180 (G protein-coupled receptor 180),no change with or without drug,-1.24,0.51,-1.46,0.83
Zfp11 (zinc finger protein 11),no change with or without drug,-0.67,-0.84,0,0.88
Hspd1 (heat shock protein 1 (chaperonin)),no change with or without drug,1.35,-0.34,1.8,1.06
Rnase2a,low cell count with doxorubicin only (active),-2.02,1.85,-2.92,0.76
"Plod2 (procollagen lysine, 2-oxoglutarate 5-dioxygenase 2)",low cell count with and without drug,-2.81,-2.19,-1.57,0.69
"Hbb-y (hemoglobin Y, beta-like embryonic chain)",no change with or without drug,0.34,0.84,-0.11,0.97
Gpr61 (G protein-coupled receptor 61),no change with or without drug,0.11,-0.51,0.56,0.95
Hes3 (hes family bHLH transcription factor 3),no change with or without drug,0.79,1.85,-0.34,1.01
Rnf113a1 (ring finger protein 113A1),no change with or without drug,-1.57,-0.84,-1.01,0.8
BC107364 (cDNA sequence BC107364),no change with or without drug,-0.22,1.85,-1.24,0.92
Vsnl1 (visinin-like 1),no change with or without drug,-0.22,0.67,-0.56,0.92
Or9s14 (olfactory receptor family 9 subfamily S member 14),no change with or without drug,-1.8,-0.51,-1.46,0.78
Adipor2 (adiponectin receptor 2),no change with or without drug,-1.24,-0.17,-1.12,0.83
Pacc1 (proton activated chloride channel 1),no change with or without drug,-0.45,0.51,-0.67,0.9
"Rab13 (RAB13, member RAS oncogene family)",low cell count with doxorubicin only (active),-2.02,-0.51,-1.69,0.76
"Rad23a (RAD23 homolog A, nucleotide excision repair protein)",no change with or without drug,0.11,-0.17,0.34,0.95
Nudcd3 (NudC domain containing 3),no change with or without drug,0.79,1.35,0,1.01
S100a4 (S100 calcium binding protein A4),no change with or without drug,-0.9,1.18,-1.57,0.86
Tspan5 (tetraspanin 5),no change with or without drug,1.01,0.17,1.01,1.03
Trim8 (tripartite motif-containing 8),no change with or without drug,-0.11,-0.17,0.11,0.93
Or6c76b (olfactory receptor family 6 subfamily C member 76B),no change with or without drug,-0.67,-0.51,-0.22,0.88
Or52s19 (olfactory receptor family 52 subfamily S member 19),no change with or without drug,-0.79,-1.52,0.34,0.87
Cse1l (chromosome segregation 1 like),low cell count with doxorubicin only (active),-6.3,-1.85,-5.96,0.38
Siae (sialic acid acetylesterase),high cell count without drug only,0.79,2.19,-0.45,1.01
Pcgf5 (polycomb group ring finger 5),no change with or without drug,0.45,-1.18,1.46,0.98
"Scn1b (sodium channel, voltage-gated, type I, beta)",no change with or without drug,0.79,-0.17,1.01,1.01
